# “And” between values parts separate entries of the source, which are not always exact repeats. Equal values may be shown once. Where a name gives a salt, the structure may show the parent alone. ± gives the standard deviation of the averaged measurements. This is one part of the list. Most values come without repeats; read them as rough.
# Tested on: RAW 264.7
# Experiment: cell viability (MTT) relative to vehicle control; higher = more viable cells
# Details: stimulus: HMGB1 5 ug/ml, 18 h
# [1] = compound concentration: 1 ug/ml
Structure (SMILES),cell viability (compound concentration: 3 uM),cell viability [1]
c1ccc([C@H]2CN3CCSC3=N2)cc1,111%,–
c1ccc([C@H]2CN3CCSC3=N2)cc1 [Levamisole],99.6%,–
c1ccc([C@H]2CN3CCSC3=N2)cc1 [Levamisole hydrochloride],101%,–
CC(C)C[C@H](NP(=O)(O)O[C@H]1O[C@H](C)[C@@H](O)[C@H](O)[C@@H]1O)C(=O)N[C@@H](Cc1c[nH]c2ccccc12)C(=O)O [Phosphoramidon disodium],121%,–
Cc1c(O)c(=O)ccn1C,92.6% and 101%,–
O=S(=O)(O)c1cc(O)ccc1O [Ethamsylate],96.2%,–
Cc1ccc([N+](=O)[O-])cc1S(=O)(=O)N(C)C,97.1%,–
Oc1ccc([C@@H]2CNCc3sccc32)cc1O,123%,–
COc1ccc(-c2cc3ncc(C)n3c(Nc3ncccc3C(N)=O)n2)cc1OC [BAY 61-3606 hydrochloride hydrate],115%,–
NC(=O)c1ccc([N+](=O)[O-])cc1Cl,98.1 ± 5%,–
O=C1OCCN1/N=C/c1ccc([N+](=O)[O-])o1 [Furazolidone],94.5%,–
O=C1OCCN1/N=C/c1ccc([N+](=O)[O-])o1,110%,–
CN(C)c1nc(N(C)C)nc(N(C)C)n1,99.6 ± 7.3%,–
CN(C)c1nc(N(C)C)nc(N(C)C)n1 [Altretamine],104 ± 6%,–
Nc1nc2n[nH]nc2c(=O)[nH]1 [Azaguanine-8],74.3%,–
Nc1nc2c(nc(Br)n2C2OC3COP(=O)(O)O[C@@H]3C2O)c(=O)[nH]1 (stereo not given in full) [8-Bromo-cGMP sodium],110%,–
O=C(O)c1cc(-c2ccccc2)nc2ccccc12,109%,–
CC(=O)O[C@]1(C(C)=O)CC[C@H]2[C@@H]3C[C@H](C)C4=CC(=O)CC[C@]4(C)[C@H]3CC[C@@]21C,104%,–
CC(=O)O[C@]1(C(C)=O)CC[C@H]2[C@@H]3C[C@H](C)C4=CC(=O)CC[C@]4(C)[C@H]3CC[C@@]21C [Medroxyprogesterone 17-Acetate],103%,–
CC(C)NCC(O)c1ccc2ccccc2c1 (stereo not given),106%,–
CC(C)NCC(O)c1ccc2ccccc2c1 (stereo not given) [Pronethalol hydrochloride],81.6%,–
CC(C)NCC(O)c1ccc2ccccc2c1 (stereo not given) [Pronethalol],104%,–
"C[C@H]1C[C@@H]2[C@H]([C@@H](O)C[C@@]3(C)[C@H]2CC[C@]3(O)C(=O)CO)[C@@]2(C)C=CC(=O)C=C12 [Methylprednisolone, 6-alpha]",110%,–
C[C@H]1C[C@@H]2[C@H]([C@@H](O)C[C@@]3(C)[C@H]2CC[C@]3(O)C(=O)CO)[C@@]2(C)C=CC(=O)C=C12 [Methylprednisolone],94.9%,–
C[C@H]1C[C@@H]2[C@H]([C@@H](O)C[C@@]3(C)[C@H]2CC[C@]3(O)C(=O)CO)[C@@]2(C)C=CC(=O)C=C12,113%,–
COc1cc([C@@H]2c3cc4c(cc3[C@@H](O[C@@H]3O[C@@H]5CO[C@@H](C)O[C@H]5[C@H](O)[C@H]3O)[C@H]3COC(=O)[C@H]23)OCO4)cc(OC)c1O,94.9 ± 3.1%,–
COc1cc([C@@H]2c3cc4c(cc3[C@@H](O[C@@H]3O[C@@H]5CO[C@@H](C)O[C@H]5[C@H](O)[C@H]3O)[C@H]3COC(=O)[C@H]23)OCO4)cc(OC)c1O [Etoposide; VP-16-213],–,99.4%

# 3 neighbouring entries from above, quoted:
Structure (SMILES),cell viability (compound concentration: 3 uM),cell viability [1]
CC(C)C[C@H](NP(=O)(O)O[C@H]1O[C@H](C)[C@@H](O)[C@H](O)[C@@H]1O)C(=O)N[C@@H](Cc1c[nH]c2ccccc12)C(=O)O [Phosphoramidon disodium],121%,–
Cc1c(O)c(=O)ccn1C,92.6% and 101%,–
O=S(=O)(O)c1cc(O)ccc1O [Ethamsylate],96.2%,–

# Next part:

Structure (SMILES),cell viability (compound concentration: 3 uM),cell viability [1]
COc1cc([C@@H]2c3cc4c(cc3[C@@H](O[C@@H]3O[C@@H]5CO[C@@H](C)O[C@H]5[C@H](O)[C@H]3O)[C@H]3COC(=O)[C@H]23)OCO4)cc(OC)c1O [Etoposide],100 ± 9.2%,–
COc1ccccc1OCC(O)CN1CCN(CC(=O)Nc2c(C)cccc2C)CC1 (stereo not given),110%,–
COc1ccccc1OCC(O)CN1CCN(CC(=O)Nc2c(C)cccc2C)CC1 (stereo not given) [Ranolazine],104 ± 2%,–
COc1ccccc1OCC(O)CN1CCN(CC(=O)Nc2c(C)cccc2C)CC1 (stereo not given) [Ranolazine dihydrochloride],107 ± 18%,–
O=[N+]([O-])c1cccc2cn[nH]c12,117 ± 25%,–
O=[N+]([O-])c1cccc2cn[nH]c12 [7-Nitroindazole],107%,–
COc1cc(/C=C(\C#N)C(=O)Nc2nnc(C(F)(F)F)s2)ccc1OCc1ccc(C(F)(F)F)cc1C(F)(F)F,121%,–
CCCCCCCCCCCCCCCCCC(=O)OC(CC(=O)O)C[N+](C)(C)C (racemic) [DL-Stearoylcarnitine chloride],136%,–
CCCNCC(O)COc1ccccc1C(=O)CCc1ccccc1 (stereo not given) [Propafenone hydrochloride],97.5 ± 2.2%,–
CCCNCC(O)COc1ccccc1C(=O)CCc1ccccc1 (stereo not given) [Propafenone],109%,–
CCCNCC(O)COc1ccccc1C(=O)CCc1ccccc1 (stereo not given),113%,–
NC(=O)C(c1ccccc1)(c1ccccc1)[C@@H]1CCN(CCc2ccc3c(c2)CCO3)C1,117%,–
CCc1cn([C@H]2C[C@H](O)[C@@H](CO)O2)c(=O)[nH]c1=O [5-Ethyl-2'-deoxyuridine ; Edoxudine],–,96.2%
CCc1cn([C@H]2C[C@H](O)[C@@H](CO)O2)c(=O)[nH]c1=O,112%,–
CC(C)NC[C@@H](O)COc1cccc2ccccc12 [(R)-Propranolol hydrochloride],96.4%,–
CC(C)NC[C@@H](O)COc1cccc2ccccc12,100%,–
Nc1ncnc2c1c(-c1ccc(Oc3ccccc3)cc1)cn2C1CCCC1,100%,–
CNCC(O)c1ccc(OC(=O)C(C)(C)C)c(OC(=O)C(C)(C)C)c1 (stereo not given) [Dipivefrin hydrochloride],111%,–
"CC(C)NCC(O)c1ccc(O)c(O)c1 (single isomer, unassigned; (+)) [(+)-Isoproterenol (+)-bitartrate salt]",109%,–
CCN(CC)CCc1nc(-c2ccccc2)no1,97.7%,–
CCN(CC)CCc1nc(-c2ccccc2)no1 [Oxalamine citrate salt],108%,–
CC(NCCC(c1ccccc1)c1ccccc1)c1ccccc1 (stereo not given),108%,–
CC(NCCC(c1ccccc1)c1ccccc1)c1ccccc1 (stereo not given) [Fendiline hydrochloride],110%,–
O=c1[nH]c(=O)n(C2CCCO2)cc1F (stereo not given) [Ftorafur],99.9%,–
O=c1[nH]c(=O)n(C2CCCO2)cc1F (stereo not given),87.8%,–
CN(C)[C@@H]1C(O)=C(C(=O)NCN2CCCC2)C(=O)[C@@]2(O)C(O)=C3C(=O)c4c(O)cccc4[C@@](C)(O)[C@H]3C[C@@H]12,101 ± 11%,–
CN(C)[C@@H]1C(O)=C(C(=O)NCN2CCCC2)C(=O)[C@@]2(O)C(O)=C3C(=O)c4c(O)cccc4[C@@](C)(O)[C@H]3C[C@@H]12 [Rolitetracycline],82.9%,91.3%

# — the supplement of paper PMC3682954
